Measured values reported in the supplement of paper PMC6414424.
Counter-ions that a name gives are not always drawn. ± gives the standard deviation of the averaged measurements. The list shows a part of the results.

tested on: APPdp1-6 iPSC-derived neurons; assay: pThr231Tau/total Tau ratio Z-score vs DMSO vehicle wells; higher = more pThr231Tau relative to total Tau; settings: 5 µM; treatment time 5 days

SMILES | pThr231Tau/total Tau ratio Z-score
CCOC(=O)[N-]c1c[n+](N2CCOCC2)no1 [Prestw-547] | -0.152 ± 0.45
NS(=O)(=O)c1cc2c(cc1Cl)NC(CC1CCCC1)NS2(=O)=O (stereo not given) [Prestw-994] | -0.306 ± 0.82
CC(C)(C)NCC(O)c1cc(O)cc(O)c1 (stereo not given) [Prestw-391] | 0.612 ± 0.3
O=C(OCCOCCO)c1ccccc1Nc1cccc(C(F)(F)F)c1 [Prestw-1407] | 0.889 ± 0.048
CC1=C(C/C=C(\C)CCC[C@H](C)CCC[C@H](C)CCCC(C)C)C(=O)c2ccccc2C1=O [PHYTONADIONE, vitamin] | -0.54 ± 0.62
O=C(O)[C@H]1/C(=C/CO)O[C@@H]2CC(=O)N21 [Prestw-1315] | 0.00472 ± 0.71
CC(=O)Nc1cccc(O)c1 [METACETAMOL    Therap cat: analgesic] | -1.47 ± 0.19
Cc1cnc(C(=O)O)c[n+]1[O-] [Prestw-1127] | 1.19 ± 1.4
O=C(O)C1(C(=O)O)CCC1.[NH2-].[NH2-].[Pt+2] [Antineoplastic] | 1.44 ± 2.1
CC(C)(C)NC[C@H](O)COc1ccccc1C1CCCC1 [Prestw-1043] | -0.745 ± 0.15
CC(C)(C)NCC(O)COc1cccc2c1C[C@H](O)[C@H](O)C2 (stereo not given in full) [Prestw-818] | 0.754 ± 0.34
COc1ccc(C(=O)c2ccccc2O)c(O)c1 [Prestw-898] | 0.198 ± 0.75
COCCc1ccc(OCC(O)CNC(C)C)cc1 (stereo not given) [Prestw-733] | -1.04 ± 0.74
CC(=O)SCC(Cc1ccccc1)C(=O)NCC(=O)OCc1ccccc1 (stereo not given) [Prestw-626] | 0.108 ± 0.068
C[C@H](CCC(=O)O)[C@H]1CC[C@H]2[C@@H]3CC[C@@H]4C[C@H](O)CC[C@]4(C)[C@H]3CC[C@]12C [Prestw-796] | -0.948 ± 1.6
COC(=O)C1=C(C)NC(C)=C(C(=O)OC(C)C)C1c1cccc2nonc12 (stereo not given) [Prestw-1021] | -1.3 ± 0.42
COCC(=O)Nc1c(I)c(C(=O)NCC(O)CO)c(I)c(C(=O)N(C)CC(O)CO)c1I (stereo not given) [Prestw-872] | -1 ± 0.28
O=C(O)CCCC[C@@H]1SC[C@@H]2NC(=O)N[C@@H]21 [Prestw-418] | 0.45 ± 1.1
N[C@@H](CSSC[C@H](N)C(=O)O)C(=O)O | -0.246 ± 0.24
CC(C)C(=O)Nc1ccc([N+](=O)[O-])c(C(F)(F)F)c1 [Prestw-180] | 1.77 ± 0.23
CN(C)[C@@H]1C(=O)C(C(N)=O)=C(O)[C@@]2(O)C(=O)C3=C(O)c4c(O)ccc(Cl)c4[C@@H](O)[C@H]3C[C@@H]12 [Prestw-753] | 0.379 ± 1.2
CC(=O)OCC[N+](C)(C)C [Acetylcholine] | 0.576 ± 1
OCCN1C[C@H](O)[C@@H](O)[C@H](O)[C@H]1CO [Prestw-1169] | 0.345 ± 0.69
COc1ccc2nc([S+]([O-])Cc3ncc(C)c(OC)c3C)[nH]c2c1 (stereo not given) [Prestw-493] | 0.966 ± 0.66
NCC[C@H](O)C(=O)N[C@@H]1C[C@H](N)[C@@H](O[C@H]2O[C@H](CN)[C@@H](O)[C@H](O)[C@H]2O)[C@H](O)[C@H]1O[C@H]1O[C@H](CO)[C@@H](O)[C@H](N)[C@H]1O [Prestw-395] | -0.645 ± 0.047
CC(C)C1CCC(C(=O)N[C@H](Cc2ccccc2)C(=O)O)CC1 (stereo not given in full) [NATEGLINIDE, antidiabetic] | 0.496 ± 0.24
Fc1ccc([C@@H]2CCNC[C@H]2COc2ccc3c(c2)OCO3)cc1 [Prestw-851] | -0.493 ± 0.51

SMILES | pThr231Tau/total Tau ratio Z-score
O=c1[nH]cnc2c1ncn2[C@H]1CC[C@@H](CO)O1 [Prestw-153] | -0.212 ± 1.9
CN(C/C=C/C#CC(C)(C)C)Cc1cccc2ccccc12 [TERBINAFINE HYDROCHLORIDE, antifungal] | 0.806 ± 1.1
NCCC[C@H](N)CC(=O)N[C@H]1CNC(=O)[C@H]([C@H]2C[C@H](O)NC(N)=N2)NC(=O)/C(=C/NC(N)=O)NC(=O)[C@H](CO)NC(=O)[C@H](CO)NC1=O [Prestw-1113] | 1.35 ± 1.6
C[C@H]1COc2c(N3CCN(C)CC3)c(F)cc3c(=O)c(C(=O)O)cn1c23 [Prestw-237] | 1.3 ± 0.85
CN(C)CCCN1c2ccccc2CCc2ccccc21 [Prestw-72] | -1.48 ± 0.069
NC(CO)C(=O)NNCc1ccc(O)c(O)c1O (stereo not given) [Prestw-938] | 3.53 ± 4.5
Nc1nc2c(c(=O)[nH]1)N(C=O)C(CNc1ccc(C(=O)N[C@@H](CCC(=O)O)C(=O)O)cc1)CN2 (stereo not given in full) [Prestw-738] | -0.234 ± 1.4
CN1CCC(OC(c2ccccc2)c2ccccc2)CC1 [Prestw-707] | 0.0273 ± 0.066
O=C(Oc1cccc2cccnc12)c1ccccc1 [BENZOXIQUINE, antiinfective] | -3.21 ± 0.59
Clc1ccc(Nc2nnc(Cc3ccncc3)c3ccccc23)cc1 [Prestw-1358] | -0.298 ± 0.069
Cc1cccc(Nc2ccccc2C(=O)O)c1C [Prestw-54] | -0.281 ± 0.59
C[n+]1ccccc1/C=N/O [Prestw-943] | 0.0209 ± 0.88
O/N=C/c1cc[n+](COC[n+]2ccc(/C=N/O)cc2)cc1 | 0.791 ± 1.6
CC(N)C(=O)OC(C)(C)Cc1ccc(Cl)cc1 (stereo not given) [Potent and selective serotonin reuptake inhibitor] | 0.0473 ± 0.66
O=C1OC(CN2CCOCC2)CN1/N=C/c1ccc([N+](=O)[O-])o1 (stereo not given) [Prestw-764] | -0.0211 ± 1.1
CC[n+]1c(-c2ccccc2)c2cc(N)ccc2c2ccc(N)cc21 | -5 ± 1.4
CNCCCN1c2ccccc2CCc2ccccc21 [Prestw-343] | -0.686 ± 0.95
O=C1NCCN1CCN1CCC(c2cn(-c3ccc(F)cc3)c3ccc(Cl)cc23)CC1 [Prestw-1341] | -0.859 ± 0.23
O=C1CCC(N2C(=O)c3ccccc3C2=O)C(=O)N1 (stereo not given) [Prestw-192] | 0.295 ± 0.5
CCOc1ccc(NC(=O)CC(C)O)cc1 (stereo not given) | 1.48 ± 0.76
Clc1ccc(C(Cn2ccnc2)OCc2csc3c(Cl)cccc23)c(Cl)c1 (stereo not given) [Prestw-1045] | -0.541 ± 0.44
CC(=O)OCC1=C(C(=O)O)N2C(=O)[C@@H](NC(=O)Cc3cccs3)[C@H]2SC1 [Prestw-719] | 0.0282 ± 0.86
CCN(CC)CCNC(=O)COc1ccc(OC)cc1 [Prestw-215] | -0.295 ± 1.2
CC1(C)S[C@@H]2[C@H](NC(=O)Cc3ccccc3)C(=O)N2[C@H]1C(=O)O [Prestw-1078] | 0.165 ± 1.3
CCCCc1nc(Cl)c(CO)n1Cc1ccc(-c2ccccc2-c2nnn[nH]2)cc1 [Prestw-1433] | 0.218 ± 1.1
C=CCCCCCCCCC(=O)O [UNDECYLENIC ACID, antifungal] | 0.141 ± 1.4
C#C[C@]1(OC(C)=O)CC[C@H]2[C@@H]3CCC4=C/C(=N/O)CC[C@@H]4[C@H]3CC[C@@]21CC [Prestw-1452] | -0.808 ± 0.65

An excerpt from further up, as a working copy:
SMILES | pThr231Tau/total Tau ratio Z-score
CNCCCN1c2ccccc2CCc2ccccc21 [Prestw-343] | -0.686 ± 0.95
O=C1NCCN1CCN1CCC(c2cn(-c3ccc(F)cc3)c3ccc(Cl)cc23)CC1 [Prestw-1341] | -0.859 ± 0.23
O=C1CCC(N2C(=O)c3ccccc3C2=O)C(=O)N1 (stereo not given) [Prestw-192] | 0.295 ± 0.5

Later entries.

SMILES | pThr231Tau/total Tau ratio Z-score
O=C(/C=C/C=C/c1ccc2c(c1)OCO2)N1CCCCC1 | 1.33 ± 1.7
CCC(=O)OCC(=O)[C@@]1(OC(=O)CC)[C@@H](C)C[C@H]2[C@@H]3CCC4=CC(=O)C=C[C@]4(C)[C@@]3(Cl)[C@@H](O)C[C@@]21C [Prestw-855] | -0.558 ± 0.35
CCN(CC)Cc1cc(Nc2ccnc3cc(Cl)ccc23)ccc1O [Prestw-309] | -0.00493 ± 0.41
CCN(CC)Cc1cc(Nc2ccnc3cc(Cl)ccc23)ccc1O [AMODIAQUINE DIHYDROCHLORIDE    Therap cat:  Antimalarial] | 0.585 ± 1.7
COc1ccccc1N1CCN(CCCNc2cc(=O)n(C)c(=O)n2C)CC1 [Prestw-905] | -0.218 ± 2.2
Cn1c(=O)c2c(ncn2CCO)n(C)c1=O [Prestw-172] | -0.147 ± 0.45
CC(C)NCC(O)c1cc(O)cc(O)c1 (stereo not given) [Prestw-505] | -0.286 ± 0.35
O=C(O)CN(CCN(CC(=O)O)CC(=O)O)CCN(CC(=O)O)CC(=O)O [Prestw-941] | 0.104 ± 1.1
C#CCN(C)CCCOc1ccc(Cl)cc1Cl [Prestw-344] | 1.33 ± 1.1
CCCn1cnc2c1c(=O)n(CCCCC(C)=O)c(=O)n2C | 0.386 ± 0.34
CN1CCCN=C1/C=C/c1cccs1 [Prestw-212] | -0.217 ± 0.88
CN1CCCN=C1/C=C/c1cccs1 [PYRANTEL PAMOATE    Therap cat:  Anthelmintic (Nematodes)] | 0.294 ± 0.78
CCC[C@@H]1C[C@@H](C(=O)N[C@@H]([C@H]2O[C@H](SC)[C@H](O)[C@@H](O)[C@H]2O)[C@@H](C)O)N(C)C1 [Prestw-302] | 0.114 ± 1.3
C#C[C@]1(O)CC[C@H]2[C@@H]3CCC4=Cc5oncc5C[C@]4(C)[C@H]3CC[C@@]21C [Prestw-105] | -1.1 ± 0.024
CO[C@H]1C[C@H](O[C@@H]2/C(C)=C/C[C@@H]3C[C@@H](C[C@]4(CC[C@H](C)[C@@H](C5CCCCC5)O4)O3)OC(=O)[C@@H]3C=C(C)/C(=N\O)[C@H]4OC/C(=C\C=C\[C@@H]2C)[C@]43O)O[C@@H](C)[C@@H]1O [SELAMECTIN, antiparasitic, antimite] | 0.3 ± 1.8
CCOc1ccc(Cc2nccc3cc(OCC)c(OCC)cc23)cc1OCC [Prestw-830] | -1.02 ± 0.43
O=C(Nc1ccc([N+](=O)[O-])cc1Cl)c1cc(Cl)ccc1O [Prestw-40] | -3.98 ± 0.19
CC1CNc2c(cccc2S(=O)(=O)N[C@@H](CCCN=C(N)N)C(=O)N2CC[C@@H](C)C[C@@H]2C(=O)O)C1 (stereo not given in full) [Prestw-1228] | 0.14 ± 0.029
CC12CC3CC(C)(C1)CC(N)(C3)C2 [Prestw-978] | -0.933 ± 1.4
CCN1CCCC1CNC(=O)c1cc(S(N)(=O)=O)ccc1OC (stereo not given) [Prestw-56] | 1.37 ± 0.28
CCN1CCCC1CNC(=O)c1cc(S(N)(=O)=O)ccc1OC (stereo not given) | 2.44 ± 3
CCCCc1oc2ccccc2c1C(=O)c1cc(I)c(OCCN(CC)CC)c(I)c1 [Prestw-409] | -1.01 ± 0.42
O=C(O)c1cccnc1 [Prestw-881] | 1.38 ± 0.21
Cc1cccc(N(C)C(=S)Oc2ccc3ccccc3c2)c1 [Prestw-70] | 2.27 ± 2.8
O=c1[nH]c(=O)n([C@H]2C[C@H](O)[C@@H](CO)O2)cc1I [Prestw-18] | -0.0434 ± 0.55
CC1(C)O[C@@H]2C[C@H]3[C@@H]4C[C@H](F)C5=CC(=O)CC[C@]5(C)[C@H]4[C@@H](O)C[C@]3(C)[C@]2(C(=O)CO)O1 [Prestw-645] | 0.365 ± 0.46
